Results reported in the supplement of paper PMC4604168 (melanoma cell lines).
This is one part of the list. Repeats are few or missing, and single values can be far off.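 The apoptosis fraction was the count of cleaved-PARP antibody-stained nuclei relative to all DNA-stained nuclei, imaged in 1,536-well plates. Screening doses were set so most cells survived, and baseline and induced cleaved-PARP levels vary greatly across cell lines.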

Assays:
Experiment in all cases: cleaved PARP positive nuclei fraction relative to DMSO control; melanoma cells; higher = more apoptosis
Details in all cases: library dose: low library concentration; 72 h
[1] = system: WM115
[2] = system: WM1716
[3] = system: WM1745
[4] = system: WM3526
[5] = system: WM3619
[6] = system: WM451Lu

Structure (SMILES)	cleaved PARP positive nuclei fraction [1]	cleaved PARP positive nuclei fraction [2]	cleaved PARP positive nuclei fraction [3]	cleaved PARP positive nuclei fraction [4]	cleaved PARP positive nuclei fraction [5]	cleaved PARP positive nuclei fraction [6]
CC1(C)NC(=O)N(c2ccc([N+](=O)[O-])c(C(F)(F)F)c2)C1=O [nilutamide] + Cn1cncc1[C@@](N)(c1ccc(Cl)cc1)c1ccc2c(c1)c(-c1cccc(Cl)c1)cc(=O)n2C [tipifarnib] (first compound 1 µM, partner dose 0.01 µM)	200%	48.1%	221%	110%	113%	74.1%
Cc1nc(Nc2ncc(C(=O)Nc3c(C)cccc3Cl)s2)cc(N2CCN(CCO)CC2)n1 [dasatanib] + COCC[n+]1c2c(n(Cc3cnccn3)c1C)C(=O)c1ccccc1C2=O [YM155] (first compound 0.004 µM, partner dose 0.0004 µM)	96.8%	99.4%	146%	66.6%	172%	116%
OCCn1cc(-c2cnc3nnn(Cc4ccc5ncccc5c4)c3n2)cn1 + O=c1cc(-c2cccc3c2Sc2ccccc2S3)oc(N2CCOCC2)c1 [KU55933] (first compound 1 µM, partner dose 1 µM)	66.2%	115%	106%	153%	186%	81.5%
Nc1cccc2c1CN(C1CCC(=O)NC1=O)C2=O (stereo unspecified) [lenalidomide] + COC(=O)c1sccc1S(=O)(=O)Nc1ccc(Nc2ccccc2)cc1OC [GSK0660] (first compound 1 µM, partner dose 1 µM)	199%	72.5%	93.4%	29.7%	55.3%	31.3%
OCc1c[nH]c2ccccc12 [Indole-3-carbinol] + C[C@]1(c2nc3c(C(N)=O)cccc3[nH]2)CCCN1 [Veliparib] (first compound 0.8 µM, partner dose 1.4 µM)	136%	131%	109%	46.1%	122%	63.1%
Clc1ccc(Nc2nnc(Cc3ccncc3)c3ccccc23)cc1 [vatalanib] + Oc1nc(-c2ccc(C(F)(F)F)cc2)nc2c1CSCC2 [XAV939] (first compound 2 µM, partner dose 2 µM)	301%	198%	128%	58.3%	77.9%	330%
O=C(CCCCCCC(=O)Nc1ccccc1)NO [vorinostat] + Oc1nc(-c2ccc(C(F)(F)F)cc2)nc2c1CSCC2 [XAV939] (first compound 0.08 µM, partner dose 2 µM)	227%	185%	111%	69.3%	107%	55.6%
Cc1cc(N2CCOCC2)cc2[nH]c(-c3c(NC[C@@H](O)c4cccc(Cl)c4)cc[nH]c3=O)nc12 + O=C(Nc1cccc(Cl)c1)Nc1ncc(CCNc2ncnc3ccsc23)s1 [SNS314] (first compound 0.2 µM, partner dose 0.0008 µM)	392%	93.6%	135%	83.2%	92.9%	87.9%
CC(=O)c1c(C)c2cnc(Nc3ccc(N4CCNCC4)cn3)nc2n(C2CCCC2)c1=O [palbociclib] + COc1cc2c(Oc3ccc4[nH]c(C)cc4c3F)ncnc2cc1OCCCN1CCCC1 [cediranib] (first compound 0.04 µM, partner dose 0.4 µM)	328%	100%	143%	92.6%	110%	115%
Clc1ccc(Nc2nnc(Cc3ccncc3)c3ccccc23)cc1 [vatalanib] + CC1(C)NC(=O)N(c2ccc([N+](=O)[O-])c(C(F)(F)F)c2)C1=O [nilutamide] (first compound 2 µM, partner dose 1 µM)	203%	58.1%	109%	146%	97.1%	65%
COc1cc(Nc2ncc(F)c(Nc3ccc4c(n3)NC(=O)C(C)(C)O4)n2)cc(OC)c1OC [Tamatinib] + O=c1cc(-c2cccc3c2Sc2ccccc2S3)oc(N2CCOCC2)c1 [KU55933] (first compound 0.4 µM, partner dose 1 µM)	198%	79.3%	126%	86.4%	206%	68%
C=CCn1c(=O)c2cnc(Nc3ccc(N4CCN(C)CC4)cc3)nc2n1-c1cccc(C(C)(C)O)n1 + CN(C)S(=O)(=O)c1ccc2c(c1)/C(=C/c1cc3c([nH]1)CCCC3)C(=O)N2 [SU6656] (first compound 0.02 µM, partner dose 0.4 µM)	296%	21.3%	105%	191%	121%	372%
NC(=O)Nc1cc(-c2cccc(F)c2)sc1C(=O)N[C@H]1CCCNC1 + COC(=O)c1sccc1S(=O)(=O)Nc1ccc(Nc2ccccc2)cc1OC [GSK0660] (first compound 0.02 µM, partner dose 1 µM)	53.1%	30.9%	80.9%	144%	119%	22.5%
NC(=O)Nc1cc(-c2cccc(F)c2)sc1C(=O)N[C@H]1CCCNC1 + COc1ccc2c(c1)CCC1C2CCC2(C)C(NCCCCCCN3C(=O)C=CC3=O)CCC12 [U73122] (first compound 0.02 µM, partner dose 0.4 µM)	143%	91.8%	98.1%	64.3%	107%	82.5%
CO[C@@H]1[C@H](N(C)C(=O)c2ccccc2)C[C@H]2O[C@]1(C)n1c3ccccc3c3c4c(c5c6ccccc6n2c5c31)C(=O)NC4 [Midostaurin] + COc1cc2c(Oc3ccc4[nH]c(C)cc4c3F)ncnc2cc1OCCCN1CCCC1 [cediranib] (first compound 0.08 µM, partner dose 0.4 µM)	74.4%	201%	107%	55.1%	88.2%	70.9%
NC(=O)Nc1cc(-c2cccc(F)c2)sc1C(=O)N[C@H]1CCCNC1 + Cn1cc(/C=C2\C(=O)Nc3cccnc32)c2ccccc21 [GW441756] (first compound 0.02 µM, partner dose 0.4 µM)	170%	58%	118%	92.2%	217%	63.7%
COc1cc(Nc2ncc(F)c(Nc3ccc4c(n3)NC(=O)C(C)(C)O4)n2)cc(OC)c1OC [Tamatinib] + NC(=O)Nc1cc(-c2cccc(F)c2)sc1C(=O)N[C@H]1CCCNC1 [AZD7762] (first compound 0.4 µM, partner dose 0.02 µM)	251%	28.4%	299%	183%	152%	195%
C#Cc1cccc(Nc2ncnc3cc(OCCOC)c(OCCOC)cc23)c1 [erlotinib] + COC(=O)c1sccc1S(=O)(=O)Nc1ccc(Nc2ccccc2)cc1OC [GSK0660] (first compound 0.8 µM, partner dose 1 µM)	66.7%	122%	111%	66.2%	74.5%	74.4%
Cn1cncc1[C@@](N)(c1ccc(Cl)cc1)c1ccc2c(c1)c(-c1cccc(Cl)c1)cc(=O)n2C [tipifarnib] + O=C(Nc1ccccc1)c1cc([N+](=O)[O-])ccc1Cl [GW9662] (first compound 0.01 µM, partner dose 2 µM)	72.5%	111%	81.1%	75.7%	107%	53.7%
Nc1cccc2c1CN(C1CCC(=O)NC1=O)C2=O (stereo unspecified) [lenalidomide] + Cn1cc(/C=C2\C(=O)Nc3cccnc32)c2ccccc21 [GW441756] (first compound 1 µM, partner dose 0.4 µM)	236%	94.3%	104%	91.9%	89.1%	120%
O=C(Nc1cccc(Cl)c1)Nc1ncc(CCNc2ncnc3ccsc23)s1 + O=C1NC(=O)/C(=C/c2ccc(-c3ccc(F)cc3O)o2)S1 [AS252424] (first compound 0.0008 µM, partner dose 1 µM)	62%	63.1%	77.4%	81.2%	87.1%	53.3%
C[C@@H]1CCN(C(=O)CC#N)C[C@@H]1N(C)c1ncnc2[nH]ccc12 + NCC(=O)Nc1ccc(-n2nc(C(F)(F)F)cc2-c2ccc3c(ccc4ccccc43)c2)cc1 [OSU03012] (first compound 1 µM, partner dose 1 µM)	76.4%	97.1%	98.2%	278%	97.4%	73.3%
Cn1nnc2c(C(N)=O)ncn2c1=O [temozolomide] + O=C(Nc1ccccc1)c1cc([N+](=O)[O-])ccc1Cl [GW9662] (first compound 2 µM, partner dose 2 µM)	67.3%	60.7%	130%	82.6%	72.1%	146%
CC(=O)c1c(C)c2cnc(Nc3ccc(N4CCNCC4)cn3)nc2n(C2CCCC2)c1=O [palbociclib] + CO[C@@H]1[C@H](N(C)C(=O)c2ccccc2)C[C@H]2O[C@]1(C)n1c3ccccc3c3c4c(c5c6ccccc6n2c5c31)C(=O)NC4 [Midostaurin] (first compound 0.04 µM, partner dose 0.08 µM)	114%	143%	119%	77.6%	137%	48.7%
C[C@@H]1CCN(C(=O)CC#N)C[C@@H]1N(C)c1ncnc2[nH]ccc12 + COc1cc2c(Oc3ccc4[nH]c(C)cc4c3F)ncnc2cc1OCCCN1CCCC1 [cediranib] (first compound 1 µM, partner dose 0.4 µM)	33.6%	28.3%	120%	792%	96%	240%
C=CCn1c(=O)c2cnc(Nc3ccc(N4CCN(C)CC4)cc3)nc2n1-c1cccc(C(C)(C)O)n1 + O=C(O)C(=O)Nc1sc2c(c1C(=O)O)CCNC2 [TCS401] (first compound 0.02 µM, partner dose 1.66667 µM)	50.8%	51.5%	136%	335%	109%	57.8%

Quoted from the listing.
Value of COc1cc(Nc2ncc(F)c(Nc3ccc4c(n3)NC(=O)C(C)(C)O4)n2)cc(OC)c1OC [Tamatinib] + NC(=O)Nc1cc(-c2cccc(F)c2)sc1C(=O)N[C@H]1CCCNC1 [AZD7762] (first compound 0.4 µM, partner dose 0.02 µM) under cleaved PARP positive nuclei fraction [3]: 299%
Value of Cn1nnc2c(C(N)=O)ncn2c1=O [temozolomide] + O=C(Nc1ccccc1)c1cc([N+](=O)[O-])ccc1Cl [GW9662] (first compound 2 µM, partner dose 2 µM) under cleaved PARP positive nuclei fraction [1]: 67.3%
